Experimental data from publication PMC11024185.
Results are given in words; binding and its absence hold for the method and conditions named. In cells and extracts the contact can be indirect. A yes stands for co-enrichment or nearness to the bait. Other partners may have been found. For part of these data: Where a sequence is shown, tags or fusion partners need not be part of it.

T1: Dbp10 (2xStrep-bdNEDD8-DBP10) (S. cerevisiae) (UniProt Q12389)
T1 sequence: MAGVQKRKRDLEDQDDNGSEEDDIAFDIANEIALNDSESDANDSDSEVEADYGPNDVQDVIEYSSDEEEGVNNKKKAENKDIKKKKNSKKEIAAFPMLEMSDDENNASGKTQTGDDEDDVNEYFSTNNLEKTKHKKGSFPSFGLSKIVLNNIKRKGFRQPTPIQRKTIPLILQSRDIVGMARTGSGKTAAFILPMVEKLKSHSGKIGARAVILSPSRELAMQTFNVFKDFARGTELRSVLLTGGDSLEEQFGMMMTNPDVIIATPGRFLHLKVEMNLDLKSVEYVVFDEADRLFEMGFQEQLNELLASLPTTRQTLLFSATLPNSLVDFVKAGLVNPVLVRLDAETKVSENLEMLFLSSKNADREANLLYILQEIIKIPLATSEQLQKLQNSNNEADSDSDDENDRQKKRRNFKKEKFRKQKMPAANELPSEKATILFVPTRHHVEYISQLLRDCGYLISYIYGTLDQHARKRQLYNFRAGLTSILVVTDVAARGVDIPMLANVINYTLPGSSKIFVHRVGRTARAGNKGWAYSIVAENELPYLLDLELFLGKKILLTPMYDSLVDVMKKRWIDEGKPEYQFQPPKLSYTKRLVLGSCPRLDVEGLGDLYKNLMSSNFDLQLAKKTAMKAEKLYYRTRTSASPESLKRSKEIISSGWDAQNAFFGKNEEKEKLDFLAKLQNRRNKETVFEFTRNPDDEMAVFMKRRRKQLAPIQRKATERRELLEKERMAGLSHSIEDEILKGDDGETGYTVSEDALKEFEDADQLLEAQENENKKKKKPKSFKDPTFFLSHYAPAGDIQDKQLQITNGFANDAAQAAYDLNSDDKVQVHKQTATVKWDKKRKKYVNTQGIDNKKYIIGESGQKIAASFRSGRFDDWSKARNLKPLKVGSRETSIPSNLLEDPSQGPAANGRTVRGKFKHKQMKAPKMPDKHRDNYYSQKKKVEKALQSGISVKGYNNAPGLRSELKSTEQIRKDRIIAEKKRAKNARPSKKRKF

T2: Ssf1-3xFLAG-3C-2xProteinA (S. cerevisiae) (UniProt P38789)
T2 sequence: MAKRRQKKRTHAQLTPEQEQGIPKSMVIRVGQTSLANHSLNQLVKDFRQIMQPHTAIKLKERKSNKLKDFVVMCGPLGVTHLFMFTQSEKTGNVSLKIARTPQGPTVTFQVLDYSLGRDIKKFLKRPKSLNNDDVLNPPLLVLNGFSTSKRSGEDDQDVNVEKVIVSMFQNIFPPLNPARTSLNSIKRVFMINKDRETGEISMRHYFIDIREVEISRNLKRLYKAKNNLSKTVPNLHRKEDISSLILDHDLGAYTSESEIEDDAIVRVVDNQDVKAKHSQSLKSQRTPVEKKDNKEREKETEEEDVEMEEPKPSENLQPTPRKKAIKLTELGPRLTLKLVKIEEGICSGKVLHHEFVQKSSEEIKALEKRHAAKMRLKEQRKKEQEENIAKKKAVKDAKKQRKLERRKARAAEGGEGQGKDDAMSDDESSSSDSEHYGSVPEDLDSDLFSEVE

T3: Noc2-3xFLAG-3C-2xProteinA (S. cerevisiae) (UniProt P39744)
T3 sequence: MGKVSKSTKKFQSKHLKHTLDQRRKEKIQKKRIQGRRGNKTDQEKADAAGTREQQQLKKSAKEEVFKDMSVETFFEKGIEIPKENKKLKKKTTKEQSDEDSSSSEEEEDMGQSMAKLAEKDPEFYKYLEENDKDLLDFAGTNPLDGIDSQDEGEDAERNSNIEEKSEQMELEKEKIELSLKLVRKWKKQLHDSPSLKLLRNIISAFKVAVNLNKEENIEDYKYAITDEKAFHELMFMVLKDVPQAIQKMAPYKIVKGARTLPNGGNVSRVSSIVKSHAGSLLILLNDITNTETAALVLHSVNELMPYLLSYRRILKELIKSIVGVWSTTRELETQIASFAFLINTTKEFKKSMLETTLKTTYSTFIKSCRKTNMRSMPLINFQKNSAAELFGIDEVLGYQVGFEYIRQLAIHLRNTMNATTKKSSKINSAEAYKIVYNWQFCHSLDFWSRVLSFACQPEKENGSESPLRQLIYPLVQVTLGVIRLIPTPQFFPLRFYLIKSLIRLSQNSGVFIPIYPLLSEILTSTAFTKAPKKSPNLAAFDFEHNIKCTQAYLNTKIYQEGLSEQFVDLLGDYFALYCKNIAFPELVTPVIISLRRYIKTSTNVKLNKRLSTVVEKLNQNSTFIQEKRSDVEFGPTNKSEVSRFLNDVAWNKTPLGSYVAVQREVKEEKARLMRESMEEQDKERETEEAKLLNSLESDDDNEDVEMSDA


Legend:
[1] = target: T1, Dbp10 (2xStrep-bdNEDD8-DBP10) (S. cerevisiae); experiment: affinity purification with mass spectrometry; split-tag purification of pre-60S particles from steady state DBP10 yeast: IgG Sepharose on Ssf1-2xProteinA, 3C cleavage, then Strep-Tactin on 2xStrep-Dbp10, desthiobiotin elution; buffers with 50 µM ADP-BeF3; Coomassie-stained 4-20% SDS-PAGE, bands named by molecular weight, ambiguous bands by mass spectrometry
[2] = target: T2, Ssf1-3xFLAG-3C-2xProteinA (S. cerevisiae); experiment: as above
[3] = target: T1, Dbp10 (2xStrep-bdNEDD8-DBP10) (S. cerevisiae); experiment: affinity purification with mass spectrometry; split-tag purification of pre-60S particles from SPB4-AID yeast without and with auxin (0.5 mM IAA, 45 min): IgG Sepharose on Noc2-2xProteinA, 3C cleavage, then Strep-Tactin on 2xStrep-Dbp10; buffers with 50 µM ADP-BeF3; Coomassie-stained 4-20% SDS-PAGE, bands named by molecular weight, ambiguous bands by mass spectrometry; auxin gave ~10-fold enrichment of the particle
[4] = target: T3, Noc2-3xFLAG-3C-2xProteinA (S. cerevisiae); experiment: as above

binding [1]	binding [2]	binding [3]	binding [4]	Binder
binds	binds	binds	binds	Nop15 (protein, UniProt P53927 1-220) MVKSTSKTSTKETVTKQPTEEKPIQEKEELALETSSSSSDEEDEKDEDEIEGLAASDDEQSGTHKIKRLNPKKQANEKKSKDKKTLEEYSGIIYVSRLPHGFHEKELSKYFAQFGDLKEVRLARNKKTGNSRHYGFLEFVNKEDAMIAQESMNNYLLMGHLLQVRVLPKGAKIEKLYKYKKRVLVEKGITKPVKQLKDNMKQKHEERIKKLAKSGIEFKW
binds	binds	binds	binds	Brx1 (protein, UniProt Q08235 1-291) MSSIYKALAGKSKDNKSEKKQGNVKQFMNKQRTLLISSRGVNYRHRHLIQDLSGLLPHSRKEPKLDTKKDLQQLNEIAELYNCNNVLFFEARKHQDLYLWLSKPPNGPTIKFYIQNLHTMDELNFTGNCLKGSRPVLSFDQRFESSPHYQLIKELLVHNFGVPPNARKSKPFIDHVMSFSIVDDKIWVRTYEISHSTKNKEEYEDGEEDISLVEIGPRFVMTVILILEGSFGGPKIYENKQYVSPNVVRAQIKQQAAEEAKSRAEAAVERKIKRRENVLAADPLSNDALFK
binds	binds	binds	binds	Ebp2 (protein, UniProt P36049 1-427) MAKGFKLKELLSHQKEIEKAEKLENDLKKKKSQELKKEEPTIVTASNLKKLEKKEKKADVKKEVAADTEEYQSQALSKKEKRKLKKELKKMQEQDATEAQKHMSGDEDESGDDREEEEEEEEEEEGRLDLEKLAKSDSESEDDSESENDSEEDEDVVAKEESEEKEEQEEEQDVPLSDVEFDSDADVVPHHKLTVNNTKAMKHALERVQLPWKKHSFQEHQSVTSETNTDEHIKDIYDDTERELAFYKQSLDAVLVARDELKRLKVPFKRPLDYFAEMVKSDEHMDKIKGKLIEEASDKKAREEARRQRQLKKFGKQVQNATLQKRQLEKRETLEKIKSLKNKRKHNEIDHSEFNVGVEEEVEGKRFDRGRPNGKRAAKNAKYGQGGMKRFKRKNDATSSADVSGFSSRKMKGKTNRPGKSRRARRF
binds	binds	binds	binds	Erb1 (protein, UniProt Q04660 1-807) MMAKNNKTTEAKMSKKRAASEESDVEEDEDKLLSVDGLIDAEASESDEDDDEYESAVEEKESSSDKEAQDDSDDDSDAELNKLLAEEEGDGEEDYDSSEFSDDTTSLTDRLSGVKLQTIVDPNIYSKYADGSDRIIKPEINPVYDSDDSDAETQNTIGNIPLSAYDEMPHIGYDINGKRIMRPAKGSALDQLLDSIELPEGWTGLLDKNSGSSLNLTKEELELISKIQRNEQTDDSINPYEPLIDWFTRHEEVMPLTAVPEPKRRFVPSKNEAKRVMKIVRAIREGRIIPPKKLKEMKEKEKIENYQYDLWGDSTETNDHVMHLRAPKLPPPTNEESYNPPEEYLLSPEEKEAWENTEYSERERNFIPQKYSALRKVPGYGESIRERFERSLDLYLAPRVRKNKLNIDPNSLIPELPSPKDLRPFPIRCSTIYAGHKGKVRTLSIDPSGLWLATGSDDGTVRVWEILTGREVYRTTLIDDEENPDYHIECIEWNPDANNGILAVAVGENIHLIVPPIFGYDIENNGKTKIEDGFGYDTFGTVKKSNLEVNENGDGDEDGENESAKNAVKKQVAQWNKPSQKQLEKDICITISCKKTVKKLSWHRKGDYFVTVQPDSGNTSVLIHQVSKHLTQSPFKKSKGIIMDAKFHPFKPQLFVCSQRYVRIYDLSQQILVKKLLPGARWLSKIDIHPRGDNLIASSFDKRVLWHDLDLASTPYKTLRYHEKAVRSVNFHKKLPLFSSAADDGTIHVFHATVYDDMMKNPMIVPLKKLTGHKVINSLGVLDAIWHPREAWLFSAGADNTARLWTT
binds	binds	binds	binds	Rcm1 (enzyme, UniProt P53972 1-490) MNFYRDATWVLEDIEKEAAKERISGSMQTLVLKSCKRYKLKSNPKHIYAVLDSCWKYKPYLEKVMKKAHILEDIPKKKGKPLFSRLTLLLLCHDLLLSKQKRIQMGKHPIKDYVLKFKSPLHSEMVKLKLKLKVRELSELVLSEDISNDLPPVRWIRINPLKCHPNGETEPVLAELRKKFTLKVDKWSELVPGSIYYDEFIPNLFGIHPSDKITAHELYKHGKIIIQDRASCFPAHILNPGPSDIVIDSCSAPGNKTTHTASYIYPEPPKDNNTRIYAFEKDPERAKVLQKMIKIAGCSPNISVNVGDFTKLATPEKYKDVTCFIVDPSCSGSGIFGRKFFDSFNRRKIDDKDDDGGIVPDEQEEFIAKEELQTRLAKLSSFQFQMVKHAMSFPAAKKIVYSTCSIHAEENERVVIDLLLDKSVREWGWKVAPKREVIPSWPRRGKVEEFEEVFRDGVTYDPQQLAEGCIRALPKSDGGIGFFAVCFERD
binds	binds	binds	binds	Nop7 (protein, UniProt P53261 1-605) MRIKKKNTRGNARNFITRSQAVRKLQVSLADFRRLCIFKGIYPREPRNKKKANKGSTAPTTFYYAKDIQYLMHEPVLAKFREHKTFARKLTRALGRGEVSSAKRLEENRDSYTLDHIIKERYPSFPDAIRDIDDALNMLFLFSNLPSTNQVSSKIINDAQKICNQWLAYVAKERLVRKVFVSIKGVYYQANIKGEEVRWLVPFKFPENIPSDVDFRIMLTFLEFYSTLLHFVLYKLYTDSGLIYPPKLDLKKDKIISGLSSYILESRQEDSLLKLDPTEIEEDVKVESLDASTLKSALNADEANTDETEKEEEQEKKQEKEQEKEQNEETELDTFEDNNKNKGDILIQPSKYDSPVASLFSAFVFYVSREVPIDILEFLILSCGGNVISEAAMDQIENKKDIDMSKVTHQIVDRPVLKNKVAGRTYIQPQWIFDCINKGELVPANKYLPGEALPPHLSPWGDAIGYDPTAPVEEGEEEESESESESEDQVEEEDQEVVAGEEDDDDDEELQAQKELELEAQGIKYSETSEADKDVNKSKNKKRKVDEEEEEKKLKMIMMSNKQKKLYKKMKYSNAKKEEQAENLKKKKKQIAKQKAKLNKLDSKK
